The text below walks through data of paper PMC5727176.

By UniProt entry, the sequences of proteins in these tests, tags left out. Residues count along the entry.
UniProt P25799, residues 1-431: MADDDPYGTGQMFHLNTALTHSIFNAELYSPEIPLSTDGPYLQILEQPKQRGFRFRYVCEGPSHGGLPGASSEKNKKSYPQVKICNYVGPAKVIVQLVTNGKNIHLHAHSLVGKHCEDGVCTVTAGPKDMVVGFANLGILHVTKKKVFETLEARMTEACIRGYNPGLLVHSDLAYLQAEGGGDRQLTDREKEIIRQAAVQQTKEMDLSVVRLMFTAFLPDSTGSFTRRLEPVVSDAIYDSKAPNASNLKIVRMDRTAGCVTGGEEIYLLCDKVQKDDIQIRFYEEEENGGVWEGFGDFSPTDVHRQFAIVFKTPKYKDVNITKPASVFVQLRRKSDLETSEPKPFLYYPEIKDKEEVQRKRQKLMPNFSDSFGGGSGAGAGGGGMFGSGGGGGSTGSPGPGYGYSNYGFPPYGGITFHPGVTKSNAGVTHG

Like-named read-outs stand apart in the source and are kept apart here. No constants are given. Whether binding was seen depends on the method and setting. Binding seen in cells or lysates may run through a third protein. A yes stands for co-enrichment or nearness to the bait. Other partners may have been found. Where a sequence is shown, tags or fusion partners need not be part of it.

Assay [1] concerns the target T1, FLAG–IκBζ (UniProt Q9EST8).
T1 sequence: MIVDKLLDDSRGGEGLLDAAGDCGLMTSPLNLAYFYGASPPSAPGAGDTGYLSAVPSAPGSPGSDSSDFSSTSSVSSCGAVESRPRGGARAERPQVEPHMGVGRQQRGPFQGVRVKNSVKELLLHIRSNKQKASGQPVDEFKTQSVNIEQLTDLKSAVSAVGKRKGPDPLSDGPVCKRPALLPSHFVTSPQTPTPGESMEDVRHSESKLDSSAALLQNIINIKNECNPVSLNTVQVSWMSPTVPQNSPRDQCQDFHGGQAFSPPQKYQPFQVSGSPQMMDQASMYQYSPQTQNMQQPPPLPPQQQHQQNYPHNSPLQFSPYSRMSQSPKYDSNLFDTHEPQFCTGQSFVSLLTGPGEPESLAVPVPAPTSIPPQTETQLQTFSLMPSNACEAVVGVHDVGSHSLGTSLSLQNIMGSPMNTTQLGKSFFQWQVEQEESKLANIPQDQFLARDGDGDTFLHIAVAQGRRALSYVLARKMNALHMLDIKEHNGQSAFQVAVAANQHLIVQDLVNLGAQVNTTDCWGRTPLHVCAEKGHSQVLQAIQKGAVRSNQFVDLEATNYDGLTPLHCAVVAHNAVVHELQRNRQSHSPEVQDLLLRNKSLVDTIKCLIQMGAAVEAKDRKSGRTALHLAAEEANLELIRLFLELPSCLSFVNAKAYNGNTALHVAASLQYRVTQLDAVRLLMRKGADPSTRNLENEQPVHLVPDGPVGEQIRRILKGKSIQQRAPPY
Put plainly: affinity purification with mass spectrometry; FLAG–IκBζ precipitated with anti-FLAG (M2) agarose from sonicated nuclei of RAW264.7 cells stimulated with ZnSO4 and LPS (140 mM KCl, 0.5% NP-40, 5% glycerol, 20 mM HEPES pH 8.0); bands cut from SDS-PAGE, LC-MS/MS.

Assay [2] concerns the target T1, FLAG–IκBζ. Described as above. This is another data set of the same source.

Consider “NF-κB p50 subunit (from UniProt P25799 1-431)”, for which the binding result with FLAG–IκBζ [1] is listed as “binds”.

B1: JunB (protein, UniProt P09450 1-344)
chain: MCTKMEQPFYHDDSYAAAGYGRSPGSLSLHDYKLLKPTLALNLADPYRGLKGPGARGPGPEGSGAGSYFSGQGSDTGASLKLASTELERLIVPNSNGVITTTPTPPGQYFYPRGGGSGGGTGGGVTEEQEGFADGFVKALDDLHKMNHVTPPNVSLGASGGPQAGPGGVYAGPEPPPVYTNLSSYSPASAPSGGSGTAVGTGSSYPTATISYLPHAPPFAGGHPAQLGLSRGASAFKEEPQTVPEARSRDATPPVSPINMEDQERIKVERKRLRNRLAATKCRKRKLERIARLEDKVKTLKAENAGLSSAAGLLREQVAQLKQKVMTHVSNGCQLLLGVKGHAF
Take B1: in the assay with FLAG–IκBζ [2], the binding result was “binds”.
